# From PubChem BioAssay AID445 (National Center for Advancing Translational Sciences (NCATS), 2006)
# The list shows a part of the results. Further columns of the screen follow, without active or inactive calls. Most of these compounds were active or inconclusive in the main read-out, so they are no random draw. Words in brackets tell the shape of the fitted curve; partial curves, single points and poor fits give uncertain potencies.
# Assay: IkB Signaling
# Conditions: ABC-DLBCL IkBa-CBG/CBR dual luciferase ratio (green luciferase fused to IkBa over red control in OCI-Ly3 lymphoma cells), 4 h
# In short: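 Curves were fitted separately to fusion (green), unfused (red) and ratio luminescence, then classed by r2, magnitude and activity. Cells: OCI-Ly3, 4 h compound plus doxycycline at 37C; 10 uM MG-132 defined full response.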
# [1] = measured here: IkB-luc green channel
# [2] = measured here: control luc red channel
# [3] = measured here: control luc red channel unless noted
smiles,measurement,setting,value
Oc1ccc(O)c2c(O)cccc12,AC50,[1],"31.6 µM [rising, partial curve]"
same,AC50,[2],"0.631 µM [falling, full curve]"
Cc1cccc(N2C(=O)C(CC(=O)Nc3ccccc3)N(C3CCCCC3)C2=O)c1 (centres undefined),AC50,[3],"39.8 µM [falling, single point]"
CCOC(=O)c1c(C)[nH]c(C)c1S(=O)(=O)N(C)CC(=O)N1CCN(c2cccc(C)c2C)CC1,AC50,[3],"10 µM [falling, partial curve]"
O=C1c2ccccc2C(=O)N1CCCCSc1nnnn1-c1ccccc1,AC50,[3],"20 µM [falling, partial curve]"
CCOC(=O)c1c(C)oc2nc(C)nc(NCCCN3CCN(c4ccccc4OC)CC3)c12,AC50,[3],"25.1 µM [falling, partial curve]"
CCOc1ccc(C(=O)Nc2c(C)nc(Nc3ccccc3)nc2Nc2ccccc2)cc1OCC,AC50,[3],"25.1 µM [falling, partial curve]"
COc1ccc(CCNc2nc(-c3ccccc3OC)cc(C(F)(F)F)n2)cc1OC,AC50,[3],"15.8 µM [falling, partial curve]"
CCCn1nc(-c2ccccc2)c2nc3ccccc3nc21,AC50,[3],"5.01 µM [rising, single point]"
COc1ccc(C2C(C(=O)N3CCN(c4ccccc4F)CC3)c3ccccc3C(=O)N2C)cc1 (centres undefined),AC50,[3],"25.1 µM [falling, partial curve]"
O=C(NCCc1ccccc1)c1c2c(nc3ccccc13)C(=O)N(C1CCCCC1)C2,AC50,[3],"10 µM [falling, partial curve]"
Cc1oc(-c2cccc(Cl)c2)nc1CN1CCC(C(=O)NCc2ccc(F)cc2)CC1,AC50,[3],"25.1 µM [falling, single point]"
Cc1c(Cl)cc(C(C)(C)C)c(O)c1Cc1c(C)c(Cl)cc(C(C)(C)C)c1O,AC50,[3],"3.16 µM [falling, single point]"
CCCN1C(=O)c2[nH]nc(-c3ccc(F)cc3)c2C1c1ccc(O)c(OCC)c1 (centres undefined),AC50,[3],"39.8 µM [falling, single point]"
COc1cccc(NC(=O)Cc2ccc(NC(=O)N3CCCCc4ccccc43)cc2)c1,AC50,[3],"12.6 µM [falling, partial curve]"
Cc1ccccc1Cn1c(=O)n(CCCCC(=O)NCc2ccc3c(c2)OCO3)c(=O)c2ccccc21,AC50,[3],"3.16 µM [rising, full curve]"
CN(C)Cc1nc2ccccc2c(=O)n1Cc1nc(-c2cc3ccccc3o2)cs1,AC50,[3],"25.1 µM [falling, partial curve]"
Cc1ccc(N2C(=O)CSC23C(=O)Nc2ccccc23)cc1F (centres undefined),AC50,[3],"25.1 µM [falling, partial curve]"
Cc1ccc2oc(C(=O)NCC(c3ccc(Cl)cc3)N3CCOCC3)c(C)c2c1 (centres undefined),AC50,[3],"25.1 µM [falling, partial curve]"
O=[N+]([O-])c1cc(Cl)c(Cl)c(Cl)c1Cl,AC50,[3],"39.8 µM [rising, partial curve] [measured here: IkB-luc green channel]"
COc1ccccc1NC(=O)CN1C(=O)C(C)(C)c2ccccc21,AC50,[1],"31.6 µM [rising, single point]"
same,AC50,[2],"1 µM [rising, single point]"
O=C(O)c1ccccc1Nc1cccc(OCc2ccc3ccccc3n2)c1,AC50,[3],"5.01 µM [falling, partial curve]"
O=C(Nc1nc2ccccc2[nH]1)C1CC(=O)N(c2ccc3c(c2)OCCO3)C1 (centres undefined),AC50,[3],"20 µM [falling, partial curve]"
COC(=O)C(O)(CC(=O)Nc1ccc(OC(F)(F)F)cc1)C(F)(F)F (centres undefined),AC50,[3],"1.58 µM [falling, partial curve]"
CCCOc1ccc(CNC(=O)CCCN2C(=O)CSc3c2c(C)nn3-c2ccccc2)cc1,AC50,[3],"20 µM [falling, partial curve]"
COc1cccc(NC(=O)CCSc2nnc3scc(-c4ccccc4)n23)c1,AC50,[3],"20 µM [falling, partial curve]"
CC1=C(C(=O)OCCOc2ccccc2)C(c2ccc(C)o2)C2=C(CC(C)(C)CC2=O)N1 (centres undefined),AC50,[3],"10 µM [falling, partial curve]"
N#Cc1cccc(NC(=O)C2CCN(S(=O)(=O)c3ccc4c(c3)CCCN4C(=O)C3CCC3)CC2)c1,AC50,[3],"0.251 µM [falling, full curve, poor fit]"
Cc1ccc(NCc2nnc(SCC(=O)NCc3ccco3)n2CC2CCCO2)cc1Cl (centres undefined),AC50,[3],"31.6 µM [falling, partial curve]"
COc1cc(SC)ccc1C(=O)N1CCn2c3c(c4cc(C)ccc42)CCCC31 (centres undefined),AC50,[3],"12.6 µM [falling, partial curve]"
Cc1ccc(C(=O)Nc2c(C)nc3ccccn3c2=O)cc1,AC50,[3],"10 µM [rising, partial curve, poor fit]"
Cc1ccc(C)c(N2CCN(C(=O)CCc3c(C)nn(-c4ccc(N5CCCC5)nn4)c3C)CC2)c1,AC50,[3],"31.6 µM [falling, single point]"
COc1ccccc1CNC(=O)CSc1nc2nc(C)c(Cc3ccccc3C)c(C)n2n1,AC50,[3],"0.158 µM [falling, full curve]"
Cc1ccc(-c2c3c(=O)n(C)c(=O)n(C)c3cn2-n2cnnc2)cc1,AC50,[3],"31.6 µM [rising, partial curve] [measured here: IkB-luc green channel]"
O=C(CCCCCn1c(=O)[nH]c2ccsc2c1=O)NCc1ccccc1,AC50,[3],"2 µM [falling, single point]"
Cc1cc(C(=O)CSc2nnc(Nc3ccccc3F)s2)c(C)n1CC1CCCO1 (centres undefined),AC50,[3],"25.1 µM [falling, partial curve]"
CCOc1ccc(CNC(=O)Cn2nc(N3CCN(c4ccccc4)CC3)ccc2=O)cc1,AC50,[3],"31.6 µM [falling, partial curve, poor fit]"
Cc1ccccc1CSc1nc2c([nH]c3ccccc32)c(=O)n1-c1ccccc1,AC50,[3],"1.58 µM [rising, full curve, poor fit]"
Cc1ccc(C(=O)N2CCN(c3ccccc3)CC2)cc1NC(=O)c1nsc2ccccc12,AC50,[3],"25.1 µM [falling, partial curve]"
N#Cc1c(C(F)(F)F)cc(-c2cccs2)nc1SCC(=O)Nc1cccc(Br)c1,AC50,[3],"3.16 µM [falling, full curve, poor fit]"
Cc1ccc(-c2nnc(Nc3ccc(F)cc3)c3ccccc23)cc1S(=O)(=O)NC(C)C,AC50,[3],"10 µM [falling, partial curve]"
CC(C)c1ccc(NC(=O)C2CCCN(S(=O)(=O)c3ccc4[nH]c(=O)oc4c3)C2)cc1 (centres undefined),AC50,[3],"15.8 µM [falling, single point]"
Cn1c(-c2cccc(Br)c2)cnc1NCc1cccc(F)c1,AC50,[3],"7.94 µM [rising, full curve, poor fit]"
CC(=O)c1c(C)[nH]c(C(=O)CSc2nnc(-c3ccco3)n2Cc2ccccc2)c1C,AC50,[3],"15.8 µM [falling, partial curve]"
N#Cc1nc(-c2ccco2)oc1N1CCc2ccccc2C1,AC50,[3],"1.58 µM [rising, full curve]"
CC(C)CNC(=O)C(=O)Nc1c2c(nn1-c1ccc(Cl)cc1)CSC2,AC50,[1],"3.16 µM [rising, single point]"
same,AC50,[2],"10 µM [rising, partial curve]"
CCOc1ccc(NC(=O)CSc2nc3ccccc3nc2N2CCOCC2)cc1,AC50,[3],"20 µM [falling, single point]"
COc1ccc(S(=O)(=O)NC(C)(C)CO)cc1-c1nnc2c3ccccc3c(C)nn12,AC50,[3],"3.16 µM [rising, single point]"
O=c1c(N2CCN(c3ccc(F)cc3)CC2)csc2ccc(F)cc12,AC50,[3],"15.8 µM [falling, partial curve]"
CC1CCN(S(=O)(=O)c2ccc3nc(Nc4cccc(F)c4)ccc3c2)CC1,AC50,[3],"25.1 µM [falling, single point]"
c1ccc(Nc2nc3ccccc3n3cnnc23)cc1,AC50,[3],"0.631 µM [rising, full curve]"
O=C(c1cn(-c2ccccc2)nc1-c1cccs1)N1CCN(c2ccccn2)CC1,AC50,[3],"31.6 µM [falling, partial curve]"
COc1ccc(OC)c(N(C)S(=O)(=O)c2ccc3c(c2)NC(=O)CC(=O)N3)c1,AC50,[3],"10 µM [falling, partial curve]"
O=S(=O)(Cc1ccccc1)N1CCCC(c2nc(-c3ccc(F)cc3)no2)C1 (centres undefined),AC50,[3],"12.6 µM [falling, partial curve]"
Cc1ccc(NC(=O)CCCn2c(=O)c3cccn3c3cccnc32)c(C)c1,AC50,[3],"0.0631 µM [rising, full curve]"
CCCN(CCC)C(=O)CSc1nc2n[nH]c(C)c2c(=N)n1-c1ccc(OCC)cc1,AC50,[3],"15.8 µM [falling, partial curve]"
COc1ccccc1N1CCN(CC(=O)Nc2cc(F)ccc2C)CC1,AC50,[3],"20 µM [falling, partial curve]"
COc1ccc(NC(=O)c2[nH]c(C)c(C(C)=O)c2C)cc1Cl,AC50,[3],"25.1 µM [falling, single point]"
CCOc1ccc(NC(=O)c2cnn3c2NC(C)=C(C(=O)Nc2ccc(Cl)cc2)C3c2ccc(OC)c(OC)c2)cc1 (centres undefined),AC50,[3],"0.00631 µM [falling, full curve, poor fit]"
COc1ccc(N(C)C(=O)c2oc(=O)c3ccccc3c2-c2ccc(C)cc2)c(OC)c1,AC50,[3],"39.8 µM [falling, single point]"
O=C(CCC1N=C2c3ccccc3N=C(SCc3ccc(F)cc3)N2C1=O)N1CCN(c2ccccc2)CC1 (centres undefined),AC50,[3],"39.8 µM [falling, single point]"
COc1ccc(NC(=O)[C@@H]2[C@@H]3C(=O)N(C4CCCCC4)C(=O)[C@@H]3C3c4ccccc4C=CN32)cc1 (some centres undefined),AC50,[3],"15.8 µM [falling, partial curve]"

# Reformatted bar-delimited: entries from further up.
smiles | measurement | setting | value
Oc1ccc(O)c2c(O)cccc12 | AC50 | [1] | 31.6 µM [rising, partial curve]
O=C(Nc1nc2ccccc2[nH]1)C1CC(=O)N(c2ccc3c(c2)OCCO3)C1 (centres undefined) | AC50 | [3] | 20 µM [falling, partial curve]
O=C(c1cn(-c2ccccc2)nc1-c1cccs1)N1CCN(c2ccccn2)CC1 | AC50 | [3] | 31.6 µM [falling, partial curve]
